What follows is the remainder of the data, with few or none of the targets with a hit. The data scatter; read single values as rough. This is a selection; strong and weak results do not stand in their true shares.
Each target was assayed with COC(=O)/C=C/c1ccccc1 [methyl cinnamate] (assay: log2 ratio of iodoacetamide-alkyne labeling of the cysteine site, DMSO over compound (competition); higher = stronger covalent engagement of the cysteine by the compound, active = 1 or more). Settings: 500 µM; treatment time 1 h; system: HEK293T cell lysate.
Procedure, shortened: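 After 1 h at ambient temperature with vehicle or electrophile (500 µM), HEK293T lysate (2 mg/mL) was labelled for 1 h with iodoacetamide alkyne and clicked to sCIP-TMT reagents. Pooled samples were trypsin-digested overnight at 37 °C, streptavidin-enriched, acid-eluted and analysed by Orbitrap Eclipse LC-MS/MS with FAIMS, then quantified in FragPipe over three replicates with duplicate channels. A cysteine's log2 competition ratio is its mean control-channel over mean compound-channel reporter intensity. Cysteines quantified in only one replicate were not included.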

Amino acid sequences for entries named in this document (tags omitted). A change or cut given only in a name is not applied to a line headed by its entry.
UniProt Q9Y277: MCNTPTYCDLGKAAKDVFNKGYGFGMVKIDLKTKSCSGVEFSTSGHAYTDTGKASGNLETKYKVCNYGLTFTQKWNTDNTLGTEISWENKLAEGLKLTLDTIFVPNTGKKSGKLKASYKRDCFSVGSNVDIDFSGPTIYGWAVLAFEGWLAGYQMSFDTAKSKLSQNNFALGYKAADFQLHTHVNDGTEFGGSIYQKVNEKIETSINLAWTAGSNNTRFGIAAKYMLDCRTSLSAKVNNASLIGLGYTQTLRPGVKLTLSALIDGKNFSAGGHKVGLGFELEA
UniProt Q9UQ13: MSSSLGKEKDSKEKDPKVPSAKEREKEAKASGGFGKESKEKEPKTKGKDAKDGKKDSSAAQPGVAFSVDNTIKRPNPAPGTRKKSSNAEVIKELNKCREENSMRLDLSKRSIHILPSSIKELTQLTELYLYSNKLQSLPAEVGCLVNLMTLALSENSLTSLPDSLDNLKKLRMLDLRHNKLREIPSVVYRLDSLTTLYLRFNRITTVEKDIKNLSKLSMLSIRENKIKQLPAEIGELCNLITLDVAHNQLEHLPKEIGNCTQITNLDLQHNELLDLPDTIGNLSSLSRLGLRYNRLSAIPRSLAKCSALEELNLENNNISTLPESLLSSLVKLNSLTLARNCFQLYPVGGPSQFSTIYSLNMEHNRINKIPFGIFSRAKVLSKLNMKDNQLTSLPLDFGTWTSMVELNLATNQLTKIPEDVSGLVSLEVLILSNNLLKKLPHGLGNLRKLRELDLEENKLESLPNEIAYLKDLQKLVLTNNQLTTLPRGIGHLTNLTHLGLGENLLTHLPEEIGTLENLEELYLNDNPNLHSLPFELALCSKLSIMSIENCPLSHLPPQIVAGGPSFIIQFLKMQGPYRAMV
UniProt Q9UMY4: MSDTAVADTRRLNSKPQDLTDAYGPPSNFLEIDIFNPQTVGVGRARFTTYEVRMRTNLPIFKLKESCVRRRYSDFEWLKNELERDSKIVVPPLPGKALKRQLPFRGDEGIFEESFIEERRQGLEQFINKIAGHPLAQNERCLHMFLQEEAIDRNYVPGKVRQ
UniProt Q9UJW0, whole entry, looked up: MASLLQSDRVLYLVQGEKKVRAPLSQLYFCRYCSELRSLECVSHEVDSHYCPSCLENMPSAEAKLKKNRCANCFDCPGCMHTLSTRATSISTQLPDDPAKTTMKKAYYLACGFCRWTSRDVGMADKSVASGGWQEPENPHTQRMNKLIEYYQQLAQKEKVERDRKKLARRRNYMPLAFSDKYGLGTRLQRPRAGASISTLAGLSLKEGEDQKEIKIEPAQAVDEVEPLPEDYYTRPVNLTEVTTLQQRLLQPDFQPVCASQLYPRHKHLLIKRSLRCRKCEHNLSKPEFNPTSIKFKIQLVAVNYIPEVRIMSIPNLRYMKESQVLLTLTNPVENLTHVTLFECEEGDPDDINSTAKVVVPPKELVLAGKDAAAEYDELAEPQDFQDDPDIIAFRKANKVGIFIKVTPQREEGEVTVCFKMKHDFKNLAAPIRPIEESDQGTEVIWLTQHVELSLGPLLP
UniProt Q9UPT8: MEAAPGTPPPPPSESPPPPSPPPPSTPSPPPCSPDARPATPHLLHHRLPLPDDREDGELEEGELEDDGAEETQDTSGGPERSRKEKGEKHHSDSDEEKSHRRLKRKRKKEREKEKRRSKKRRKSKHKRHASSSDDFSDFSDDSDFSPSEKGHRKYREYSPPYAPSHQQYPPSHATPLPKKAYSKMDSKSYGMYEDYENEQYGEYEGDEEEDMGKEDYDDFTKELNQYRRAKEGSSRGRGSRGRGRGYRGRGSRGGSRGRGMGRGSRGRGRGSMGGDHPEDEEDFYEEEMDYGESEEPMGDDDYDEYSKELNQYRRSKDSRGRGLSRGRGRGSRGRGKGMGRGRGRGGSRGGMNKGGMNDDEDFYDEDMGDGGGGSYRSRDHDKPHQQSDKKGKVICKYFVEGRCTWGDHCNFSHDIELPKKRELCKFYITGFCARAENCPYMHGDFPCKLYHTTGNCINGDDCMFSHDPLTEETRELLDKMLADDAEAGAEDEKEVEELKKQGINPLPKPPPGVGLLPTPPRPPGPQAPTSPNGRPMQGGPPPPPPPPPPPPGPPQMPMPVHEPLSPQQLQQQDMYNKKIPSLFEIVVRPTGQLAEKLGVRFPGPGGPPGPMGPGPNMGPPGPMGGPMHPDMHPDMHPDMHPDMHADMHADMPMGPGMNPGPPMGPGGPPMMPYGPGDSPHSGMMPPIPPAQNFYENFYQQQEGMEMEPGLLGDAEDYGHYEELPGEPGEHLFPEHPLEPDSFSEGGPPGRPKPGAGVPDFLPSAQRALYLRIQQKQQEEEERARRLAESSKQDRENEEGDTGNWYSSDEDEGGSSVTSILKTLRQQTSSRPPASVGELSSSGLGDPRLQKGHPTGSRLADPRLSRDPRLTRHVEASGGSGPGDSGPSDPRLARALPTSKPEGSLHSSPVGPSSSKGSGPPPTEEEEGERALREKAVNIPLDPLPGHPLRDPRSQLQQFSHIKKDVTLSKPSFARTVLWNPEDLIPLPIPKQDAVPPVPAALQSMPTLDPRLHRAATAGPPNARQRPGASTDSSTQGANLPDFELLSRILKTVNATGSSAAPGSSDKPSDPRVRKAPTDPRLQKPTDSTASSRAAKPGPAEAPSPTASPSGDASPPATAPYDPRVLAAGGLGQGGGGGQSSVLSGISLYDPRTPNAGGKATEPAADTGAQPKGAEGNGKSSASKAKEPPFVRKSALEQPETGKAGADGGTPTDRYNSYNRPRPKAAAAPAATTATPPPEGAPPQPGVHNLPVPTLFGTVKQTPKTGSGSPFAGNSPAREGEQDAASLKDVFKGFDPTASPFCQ
UniProt Q9Y3I0: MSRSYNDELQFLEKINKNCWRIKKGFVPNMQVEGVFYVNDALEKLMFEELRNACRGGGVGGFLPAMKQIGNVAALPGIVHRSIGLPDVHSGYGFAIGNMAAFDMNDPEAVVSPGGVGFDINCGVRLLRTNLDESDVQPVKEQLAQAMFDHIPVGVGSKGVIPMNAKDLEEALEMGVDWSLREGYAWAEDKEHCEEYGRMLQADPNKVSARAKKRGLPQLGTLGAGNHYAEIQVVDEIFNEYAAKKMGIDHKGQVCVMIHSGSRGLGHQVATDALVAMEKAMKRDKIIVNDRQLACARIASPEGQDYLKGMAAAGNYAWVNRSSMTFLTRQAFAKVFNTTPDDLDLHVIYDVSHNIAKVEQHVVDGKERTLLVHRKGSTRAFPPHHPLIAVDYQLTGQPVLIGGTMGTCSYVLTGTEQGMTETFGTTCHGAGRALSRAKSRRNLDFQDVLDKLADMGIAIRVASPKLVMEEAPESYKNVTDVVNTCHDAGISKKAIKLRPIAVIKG
UniProt Q9Y266: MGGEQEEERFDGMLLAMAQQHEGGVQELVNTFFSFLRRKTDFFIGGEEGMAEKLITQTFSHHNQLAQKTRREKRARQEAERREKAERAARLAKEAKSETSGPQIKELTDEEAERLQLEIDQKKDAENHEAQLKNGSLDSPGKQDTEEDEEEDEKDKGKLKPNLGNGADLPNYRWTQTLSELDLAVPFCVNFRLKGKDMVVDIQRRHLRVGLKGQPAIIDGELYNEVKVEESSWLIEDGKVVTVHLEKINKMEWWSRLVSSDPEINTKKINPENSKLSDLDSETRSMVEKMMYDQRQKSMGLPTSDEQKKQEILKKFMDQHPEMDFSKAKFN
UniProt Q9UNS2: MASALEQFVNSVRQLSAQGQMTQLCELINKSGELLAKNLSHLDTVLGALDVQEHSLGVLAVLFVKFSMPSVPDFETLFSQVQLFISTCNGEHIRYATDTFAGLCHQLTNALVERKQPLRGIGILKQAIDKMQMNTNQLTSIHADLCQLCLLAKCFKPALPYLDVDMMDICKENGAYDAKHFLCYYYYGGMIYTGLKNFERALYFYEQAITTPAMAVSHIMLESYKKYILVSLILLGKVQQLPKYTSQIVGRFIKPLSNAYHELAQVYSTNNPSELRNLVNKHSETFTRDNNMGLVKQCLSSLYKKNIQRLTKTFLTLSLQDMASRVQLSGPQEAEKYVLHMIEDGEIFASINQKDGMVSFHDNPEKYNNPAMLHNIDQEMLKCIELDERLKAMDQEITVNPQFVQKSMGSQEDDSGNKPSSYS
UniProt Q9UHI6: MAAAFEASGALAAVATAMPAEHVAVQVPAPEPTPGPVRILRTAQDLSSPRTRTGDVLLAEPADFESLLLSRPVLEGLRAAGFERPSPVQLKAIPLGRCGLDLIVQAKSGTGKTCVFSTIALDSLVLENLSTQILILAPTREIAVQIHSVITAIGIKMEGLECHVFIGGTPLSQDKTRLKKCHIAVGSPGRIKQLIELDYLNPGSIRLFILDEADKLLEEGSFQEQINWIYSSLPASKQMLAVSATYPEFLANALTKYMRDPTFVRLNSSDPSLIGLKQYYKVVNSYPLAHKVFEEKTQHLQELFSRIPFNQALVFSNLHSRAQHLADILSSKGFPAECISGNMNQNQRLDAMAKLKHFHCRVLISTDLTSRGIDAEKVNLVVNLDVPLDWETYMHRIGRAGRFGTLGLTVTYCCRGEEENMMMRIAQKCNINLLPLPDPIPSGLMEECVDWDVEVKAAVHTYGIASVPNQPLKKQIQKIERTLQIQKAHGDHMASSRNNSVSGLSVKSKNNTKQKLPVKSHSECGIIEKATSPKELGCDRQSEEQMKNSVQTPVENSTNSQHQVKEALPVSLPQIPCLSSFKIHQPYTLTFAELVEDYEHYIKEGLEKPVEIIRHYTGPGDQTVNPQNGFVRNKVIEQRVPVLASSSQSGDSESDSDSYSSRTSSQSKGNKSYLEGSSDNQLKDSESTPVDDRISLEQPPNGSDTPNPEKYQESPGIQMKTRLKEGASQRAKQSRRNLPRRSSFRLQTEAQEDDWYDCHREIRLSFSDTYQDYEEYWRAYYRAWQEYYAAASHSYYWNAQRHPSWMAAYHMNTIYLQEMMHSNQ
UniProt Q9ULG1, whole entry, looked up: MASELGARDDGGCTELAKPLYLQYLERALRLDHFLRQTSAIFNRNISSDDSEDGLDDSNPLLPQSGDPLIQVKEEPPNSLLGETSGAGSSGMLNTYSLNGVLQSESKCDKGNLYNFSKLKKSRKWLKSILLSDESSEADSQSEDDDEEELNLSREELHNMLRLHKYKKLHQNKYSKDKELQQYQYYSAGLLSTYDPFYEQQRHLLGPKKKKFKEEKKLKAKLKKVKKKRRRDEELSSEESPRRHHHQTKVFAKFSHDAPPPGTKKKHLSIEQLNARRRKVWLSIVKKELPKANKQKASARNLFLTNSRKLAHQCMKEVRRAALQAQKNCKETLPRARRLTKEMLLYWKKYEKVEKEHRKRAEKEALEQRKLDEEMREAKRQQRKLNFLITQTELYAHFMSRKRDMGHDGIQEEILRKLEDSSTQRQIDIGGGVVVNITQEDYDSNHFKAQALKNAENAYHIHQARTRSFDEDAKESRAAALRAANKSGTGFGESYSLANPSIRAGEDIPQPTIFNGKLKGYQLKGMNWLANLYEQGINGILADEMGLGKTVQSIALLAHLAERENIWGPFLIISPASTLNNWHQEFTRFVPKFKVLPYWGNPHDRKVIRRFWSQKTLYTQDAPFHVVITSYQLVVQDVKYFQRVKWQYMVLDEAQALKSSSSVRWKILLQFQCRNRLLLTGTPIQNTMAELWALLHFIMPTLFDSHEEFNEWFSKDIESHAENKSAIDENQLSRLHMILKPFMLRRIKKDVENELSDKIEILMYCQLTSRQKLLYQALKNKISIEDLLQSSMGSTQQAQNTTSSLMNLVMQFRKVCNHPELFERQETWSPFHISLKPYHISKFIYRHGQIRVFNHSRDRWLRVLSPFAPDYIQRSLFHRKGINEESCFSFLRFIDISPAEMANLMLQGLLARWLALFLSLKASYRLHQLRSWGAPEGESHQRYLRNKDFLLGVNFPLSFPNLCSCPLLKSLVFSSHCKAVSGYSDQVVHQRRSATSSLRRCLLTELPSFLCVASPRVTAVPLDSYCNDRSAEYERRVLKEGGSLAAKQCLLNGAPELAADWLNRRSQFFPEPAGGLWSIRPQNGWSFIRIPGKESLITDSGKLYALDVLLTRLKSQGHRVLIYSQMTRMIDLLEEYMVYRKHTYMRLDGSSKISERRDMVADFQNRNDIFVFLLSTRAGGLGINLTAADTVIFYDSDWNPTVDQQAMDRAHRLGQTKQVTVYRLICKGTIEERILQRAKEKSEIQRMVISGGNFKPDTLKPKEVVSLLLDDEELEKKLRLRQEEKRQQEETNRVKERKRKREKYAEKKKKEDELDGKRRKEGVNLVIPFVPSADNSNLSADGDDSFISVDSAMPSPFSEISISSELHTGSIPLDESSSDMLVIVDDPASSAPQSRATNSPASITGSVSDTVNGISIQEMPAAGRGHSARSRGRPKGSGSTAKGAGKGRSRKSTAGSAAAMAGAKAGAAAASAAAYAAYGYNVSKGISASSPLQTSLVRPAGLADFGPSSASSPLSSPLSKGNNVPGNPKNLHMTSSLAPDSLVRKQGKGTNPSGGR

Target | log2 ratio of iodoacetamide-alkyne labeling
UniProt Q9Y3U8_C48 | inactive: 0.182
MRPS16 C41 (UniProt Q9Y3D3) | inactive: -0.0519
BAG5 C157 (UniProt Q9UL15) | inactive: 0.292
SRRM2 C872 (UniProt Q9UQ35) | inactive: 0.481
VDAC3 C36 (UniProt Q9Y277) | inactive: 0.191
STUB1 C199 (UniProt Q9UNE7) | inactive: 0.234
NOC2L C585 (UniProt Q9Y3T9) | inactive: 0.217
SHOC2 C306 (UniProt Q9UQ13) | inactive: -0.0467
NCKAP1 C599 (UniProt Q9Y2A7) | inactive: -0.0148
HBS1L C31 (UniProt Q9Y450) | inactive: 0.455
DIS3 C194 (UniProt Q9Y2L1) | inactive: -0.116
TDRKH C419 (UniProt Q9Y2W6) | inactive: 0.132
UniProt Q9UK61_C538 | inactive: -0.057
HECTD1 C2415 (UniProt Q9ULT8) | inactive: 0.0163
RUVBL1 C94 (UniProt Q9Y265) | inactive: -0.042
ANAPC2 C421 (UniProt Q9UJX6) | inactive: 0.112
VPS51 C421 (UniProt Q9UID3) | inactive: -0.269
SNX12 C141 (UniProt Q9UMY4) | inactive: 0.251
DDX52 C536 (UniProt Q9Y2R4) | inactive: 0.194

Target | log2 ratio of iodoacetamide-alkyne labeling
DCTN4 C41 (UniProt Q9UJW0) | inactive: 0.0768
ACIN1 C1052 (UniProt Q9UKV3) | inactive: 0.0664
MACF1 C7344 (UniProt Q9UPN3) | inactive: 0.0878
KIDINS220 C867 (UniProt Q9ULH0) | inactive: 0.158
DCTN4 C258 (UniProt Q9UJW0) | inactive: 0.0776
ZC3H4 C1302 (UniProt Q9UPT8) | inactive: 0.081
MED23 C1043 (UniProt Q9ULK4) | inactive: 0.486
UniProt Q9Y3I0_C54 | inactive: -0.177
NUDC C188 (UniProt Q9Y266) | inactive: -0.15
UniProt Q9Y3I0_C122 | inactive: 0.0555
COPS3 C383 (UniProt Q9UNS2) | inactive: 0.0971
PSMD13 C357 (UniProt Q9UNM6) | inactive: 0.14
AGTPBP1 C567 (UniProt Q9UPW5) | inactive: 0.182
SH3BP1 C338 (UniProt Q9Y3L3) | inactive: 0.29
DDX20 C577 (UniProt Q9UHI6) | inactive: 0.149
HECTD1 C2195 (UniProt Q9ULT8) | inactive: 0.611
MACF1 C7245 (UniProt Q9UPN3) | inactive: 0.141
INO80 C1049 (UniProt Q9ULG1) | inactive: 0.00564

Three successive records out of the list so far:
Target | log2 ratio of iodoacetamide-alkyne labeling
MACF1 C7344 (UniProt Q9UPN3) | inactive: 0.0878
KIDINS220 C867 (UniProt Q9ULH0) | inactive: 0.158
DCTN4 C258 (UniProt Q9UJW0) | inactive: 0.0776
